The data set in a line: HILIC, Merck SeQuant ZIC-HILIC, 25 °C, 0.25 mL/min; A: water + 16 mM ammonium formate; B: acetonitrile + 0.1% formic acid, pH 3; gradient (min/%B) 0/97 2/97 10/70 15/10 17/10 18/97 25/97. As to conditions: stereoisomer not certain.

Each structure is given as a SMILES string.

Take `O=C(O)C1=CC(=O)C(O)C(O)C1` (configuration not stated) [3-DEHYDROSHIKIMATE]: the LC retention time was found to be 9.21 min.

On to `O=C(O)C(=O)Cc1ccc(O)cc1` [3-(4-HYDROXYPHENYL)PYRUVATE-C2H2O2], for which the LC retention time worked out at 1.77 min.

Values taken from the RepoRT retention time repository.
